Source: PubChem BioAssay AID445 (National Center for Advancing Translational Sciences (NCATS), 2006)
This is one part of the list. The main result of the screen is listed elsewhere. These columns were measured beside it and carry no call. Compounds called inactive in the main read-out are mostly missing here. The note in brackets gives the kind of curve behind each potency; many fits are weak.

Experiment: IkB Signaling
Settings: ABC-DLBCL IkBa-CBG/CBR dual luciferase ratio (green luciferase fused to IkBa over red control in OCI-Ly3 lymphoma cells), 4 h
Method in brief: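 In this assay, an IκBα–CBG68 fusion accumulates when IKK-driven degradation is blocked; native CBR normalizes for cell number. OCI-Ly3 cells were treated 4 h with compound and doxycycline, then green and red light read after Chroma-Glo addition.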

[1] = measured here: control luc red channel unless noted
[2] = measured here: IkB-luc green channel
[3] = measured here: control luc red channel

**Q.** With O=C(NCC(c1ccc2c(c1)OCO2)N1CCN(c2ccccc2)CC1)C(=O)Nc1ccc(F)cc1 (stereo not given) as the molecule, how does the AC50 [1] read?
**A.** The AC50 was 0.1 µM [falling, full curve].

**Q.** With O=C(NCc1cccs1)c1cc2ccccc2o1 as the molecule, how does the AC50 [1] read?
**A.** Its AC50 is 15.8 µM [falling, partial curve].

**Q.** With CN(C)c1ccc(CN(Cc2ccco2)C(=O)COc2ccc(F)cc2)cc1 as the molecule, how does the AC50 [1] read?
**A.** Its AC50 is 20 µM [falling, single point].

**Q.** For Cc1ccc(NC(=O)N2CC3CCCN3c3ccccc32)cc1C (stereo not given), which AC50 [1] is on record?
**A.** Its AC50 is 5.01 µM [falling, partial curve].

**Q.** For Cc1cccc(C(=O)NCC(c2cccs2)S(=O)(=O)c2cccs2)c1 (stereo not given), which AC50 [1] is on record?
**A.** Its AC50 is 1 µM [rising, full curve].

**Q.** For Cc1nc2sc(C)c(C)n2c(=O)c1S(=O)(=O)N1CCN(c2ccccc2F)CC1, which AC50 [1] is on record?
**A.** Its AC50 is 20 µM [falling, single point].

**Q.** For Cc1c(C(=O)N(Cc2ccc(N(C)C)cc2)CC2CCCO2)oc2ccccc12 (stereo not given), which AC50 [1] is on record?
**A.** Its AC50 is 20 µM [falling, partial curve].

**Q.** Which AC50 [1] does the source give for Cc1cccc(N2CCN(C(=O)c3ccc4nc(N5CCC(C)CC5)sc4c3)CC2)c1C here?
**A.** The AC50 was 12.6 µM [falling, partial curve].

**Q.** For CCCSc1ncc(Cl)c(C(=O)Nc2ccc(S(=O)(=O)N3CCCC(C)C3)cc2)n1 (stereo not given), which AC50 [1] is on record?
**A.** Its AC50 is 15.8 µM [falling, partial curve].

**Q.** Which AC50 [1] does the source give for CCc1nnc(SCc2nc(-c3ccccc3Cl)oc2C)c2cc3sc(C)cc3n12 here?
**A.** The AC50 was 10 µM [falling, partial curve].

**Q.** For COc1ccc2[nH]cc(CCNC(=O)Nc3ccccc3)c2c1, which AC50 [1] is on record?
**A.** Its AC50 is 39.8 µM [falling, single point].

**Q.** Which AC50 [1] does the source give for Cc1ccc(NC(=O)CN2C(=O)c3cccnc3Sc3ccccc32)cc1C here?
**A.** Its AC50 is 25.1 µM [falling, single point].

**Q.** For CCCn1c(=O)c2ccccc2n2c(SCc3nc4ccccc4s3)nnc12, which AC50 [1] is on record?
**A.** The AC50 was 2.51 µM [falling, partial curve].

**Q.** For c1ccc(-c2cc(-c3nnc4sc(-c5ccccn5)nn34)[nH]n2)cc1, which AC50 [1] is on record?
**A.** Its AC50 is 2 µM [falling, full curve].

**Q.** With O=C(COc1ccccc1Br)c1ccc(O)cc1O as the molecule, how does the AC50 [1] read?
**A.** Its AC50 is 31.6 µM [falling, partial curve].

**Q.** For CCc1ccc(CNc2ncc(-c3cccc(OC)c3)n2C)cc1, which AC50 [1] is on record?
**A.** The AC50 was 12.6 µM [rising, partial curve].

**Q.** Which AC50 [1] does the source give for O=C(CC1CCCCC1)N1CCN(c2ccccn2)CC1 here?
**A.** Its AC50 is 12.6 µM [falling, partial curve].

**Q.** With CCOC(=O)Cc1cc(C(=O)Nc2ccc(Br)cc2)sc1-c1ccc(C)cc1 as the molecule, how does the AC50 [1] read?
**A.** The AC50 was 10 µM [falling, partial curve].

**Q.** With O=C(O)CCC(=O)Nc1ccc(N2CCCCCC2)cc1 as the molecule, how does the AC50 [2] read?
**A.** Its AC50 is 15.8 µM [rising, partial curve].

**Q.** And the AC50 [3]?
**A.** The AC50 was 0.02 µM [falling, full curve].

**Q.** With CN1/C(=C\C(=O)COC(=O)Cn2nnc(-c3ccccc3)n2)C(C)(C)c2ccccc21 as the molecule, how does the AC50 [1] read?
**A.** Its AC50 is 7.94 µM [falling, partial curve].

**Q.** With COc1ccc(CNC(=O)C2CCCN(S(=O)(=O)N(C)c3ccc(F)cc3)C2)cc1OC (stereo not given) as the molecule, how does the AC50 [1] read?
**A.** Its AC50 is 10 µM [falling, partial curve].

**Q.** For O=C(OCc1cc(=O)n2nc(-c3cccs3)sc2n1)c1cccc(Cl)c1, which AC50 [1] is on record?
**A.** Its AC50 is 2.51 µM [falling, partial curve].

**Q.** For COc1ccc(S(=O)(=O)c2c(N)n(Cc3ccco3)c3nc4ccccc4nc23)cc1, which AC50 [1] is on record?
**A.** The AC50 was 15.8 µM [falling, partial curve].

**Q.** Which AC50 [1] does the source give for Cc1ccccc1C(=O)Nc1cccc(OCc2cc(=O)n3c4c(sc3n2)CCCC4)c1 here?
**A.** The AC50 was 20 µM [falling, partial curve].

**Q.** For COc1ccc(NC(=O)Cn2cc(S(=O)(=O)N3CCC(C)CC3)c3ccccc3c2=O)cc1Cl, which AC50 [1] is on record?
**A.** The AC50 was 5.01 µM [falling, partial curve].

**Q.** For Cc1ccc(C)c(N2CCN(C(=O)c3ccc(-c4nc(COc5ccccc5)c(C)o4)cc3)CC2)c1, which AC50 [1] is on record?
**A.** Its AC50 is 10 µM [falling, partial curve].

**Q.** With COc1cccc(CNS(=O)(=O)c2ccc3[nH]c4c(c3c2)CCCCC4)c1 as the molecule, how does the AC50 [1] read?
**A.** The AC50 was 31.6 µM [falling, single point].

**Q.** For CCOc1ccc(NC(=O)c2ccc3[nH]c(C)cc(=O)c3c2)cc1, which AC50 [1] is on record?
**A.** Its AC50 is 0.00631 µM [rising, full curve, poor fit].

**Q.** For COC(=O)c1cc(C(=O)OC)cc(S(=O)(=O)Nc2ccc(Cl)c(N)c2)c1, which AC50 [1] is on record?
**A.** Its AC50 is 31.6 µM [falling, single point].

**Q.** With COc1ccc(CN(Cc2ccco2)C(=O)COc2ccc(Cl)cc2C)cc1 as the molecule, how does the AC50 [1] read?
**A.** Its AC50 is 25.1 µM [falling, partial curve].

**Q.** For CCOC(=O)c1c(S(=O)(=O)N2CCCC(C(=O)NCc3ccc(F)cc3)C2)c(C)n(CC)c1C (stereo not given), which AC50 [1] is on record?
**A.** The AC50 was 5.01 µM [rising, single point].

**Q.** Which AC50 [1] does the source give for O=C(CCCCn1c(=O)[nH]c2ccsc2c1=O)N1CCN(c2cccc(C(F)(F)F)c2)CC1 here?
**A.** Its AC50 is 20 µM [falling, partial curve].

**Q.** Which AC50 [1] does the source give for CC(=O)N1CCc2c(sc3c2c(=O)n(-c2cccc(Cl)c2C)c(=O)n3Cc2ccccc2C)C1 here?
**A.** The AC50 was 31.6 µM [falling, single point].

**Q.** For Cn1cc(C(=O)c2ccc(Cl)cc2)cc1-c1nc2ccccc2n1C, which AC50 [1] is on record?
**A.** Its AC50 is 5.01 µM [falling, full curve].

**Q.** For CCN1CCN(Cc2c(O)ccc3oc(C)c(C(=O)Nc4ccc(OC)cc4)c23)CC1, which AC50 [1] is on record?
**A.** Its AC50 is 10 µM [falling, partial curve].

**Q.** For O=C(CSc1nc2cc(Cl)ccc2o1)c1cccs1, which AC50 [1] is on record?
**A.** The AC50 was 25.1 µM [falling, single point].

**Q.** With CCC(=O)OCC(=O)[C@@]1(OC(=O)CC)[C@H](C)C[C@@H]2[C@@H]3[C@H]([C@@H](O)C[C@@]21C)[C@]1(C)C=CC(=O)C=C1C[C@@H]3Cl as the molecule, how does the AC50 [1] read?
**A.** Its AC50 is 5.01 nM [rising, full curve] [measured here: IkB-luc green channel].

**Q.** For Cc1ccc(SCc2[nH]nc3c2C2(CCSCC2)C(C#N)=C(N)O3)cc1, which AC50 [1] is on record?
**A.** The AC50 was 5.01 µM [falling, partial curve, poor fit].

**Q.** With N#C/C(=C\c1ccc(O)c(O)c1)C(=O)NCCCc1ccccc1 as the molecule, how does the AC50 [1] read?
**A.** Its AC50 is 15.8 µM [falling, partial curve].

**Q.** Which AC50 [1] does the source give for CCCCNC(=O)Nc1ccc(Br)cn1 here?
**A.** Its AC50 is 25.1 µM [falling, single point].

**Q.** Which AC50 [1] does the source give for CCOC(=O)c1ccccc1NC(=O)Cn1nnc2sc3c(c2c1=O)CCCC3 here?
**A.** Its AC50 is 25.1 µM [falling, single point].

**Q.** Which AC50 [1] does the source give for CCn1c(=O)c(C(=O)NCc2ccccn2)c(O)c2ccccc21 here?
**A.** The AC50 was 7.94 µM [falling, partial curve].

**Q.** For CCOc1ccc(NC(=O)c2oc3ccccc3c2NC(=O)C2CCCCC2)cc1, which AC50 [1] is on record?
**A.** The AC50 was 39.8 µM [falling, single point].

**Q.** For COc1ccc(CCNc2oc(COc3ccccc3Cl)nc2C#N)cc1OC, which AC50 [2] is on record?
**A.** Its AC50 is 12.6 µM [falling, partial curve].

**Q.** And the AC50 [3]?
**A.** The AC50 was 3.98 µM [falling, partial curve].

**Q.** With Cc1cccc(NC(=O)CSc2nc(=O)n(Cc3ccncc3)c3c2CCC3)c1C as the molecule, how does the AC50 [1] read?
**A.** The AC50 was 5.01 µM [falling, partial curve].

**Q.** For Cc1ncsc1C(=O)Nc1nc2c(s1)CCCC2, which AC50 [1] is on record?
**A.** Its AC50 is 7.94 µM [falling, partial curve].

**Q.** With CCOC(=O)Cn1c(=O)oc2cc(S(=O)(=O)Nc3ccc(F)cc3)ccc21 as the molecule, how does the AC50 [1] read?
**A.** Its AC50 is 15.8 µM [falling, partial curve].

**Q.** With Oc1ccc(/C=C/c2nc(-c3ccccc3O)n(-c3ccccc3)n2)c(O)c1 as the molecule, how does the AC50 [1] read?
**A.** Its AC50 is 25.1 µM [falling, partial curve].

**Q.** Which AC50 [1] does the source give for CCCCCNC(=O)c1cc2c(=O)n3ccccc3nc2n1C here?
**A.** The AC50 was 25.1 µM [falling, partial curve].

**Q.** Which AC50 [1] does the source give for CN(C)C(=O)c1ccc(NC(=O)Cn2nc(-c3ccccc3)c3ccccc3c2=O)cc1 here?
**A.** The AC50 was 10 µM [falling, partial curve].

**Q.** With CCOC(=O)c1cccc(NS(=O)(=O)c2cc(-c3cnc(C)o3)ccc2OC)c1 as the molecule, how does the AC50 [1] read?
**A.** Its AC50 is 20 µM [falling, partial curve, poor fit].

**Q.** Which AC50 [1] does the source give for CCOC(=O)c1c(NC(=O)COc2cc(C)ccc2C(C)C)sc2c1CCCC2 here?
**A.** Its AC50 is 39.8 µM [falling, single point].

**Q.** Which AC50 [1] does the source give for CC(C)(C)Nc1ncnc2c1cnn2-c1ccccc1 here?
**A.** Its AC50 is 20 µM [falling, single point].

**Q.** Which AC50 [1] does the source give for Cc1cccc(NC(=O)c2c(NC(=O)c3cccs3)sc3c2CCC(C)C3)c1 (stereo not given) here?
**A.** Its AC50 is 2.51 µM [falling, full curve].

**Q.** Which AC50 [1] does the source give for CCOC(=O)C1=C(C)N=C(/N=C/N(C)C)SC1c1ccccc1 (stereo not given) here?
**A.** Its AC50 is 15.8 µM [falling, partial curve].

**Q.** Which AC50 [1] does the source give for Cc1cnc(NC(=O)CSc2nnc(-c3ccccc3)o2)s1 here?
**A.** The AC50 was 2.51 µM [falling, partial curve].

**Q.** Which AC50 [1] does the source give for CC1=C(c2ccc(C(C)C)cc2)S(=O)(=O)N=C1N1CCN(c2ccc(F)cc2)CC1 here?
**A.** Its AC50 is 3.98 µM [rising, single point].

**Q.** For COc1ccccc1C(=O)n1nc(-c2cccnc2)nc1NCc1ccccc1, which AC50 [1] is on record?
**A.** Its AC50 is 39.8 µM [falling, single point].

**Q.** For Cc1ccc(OCC(=O)Nc2nnc(SCc3cc(=O)c4ccccc4[nH]3)s2)cc1C, which AC50 [1] is on record?
**A.** Its AC50 is 15.8 µM [falling, partial curve].

**Q.** With Cc1ccc(Cl)cc1NC(=O)c1ccc(NC(=O)N2CCSc3ncccc32)cc1 as the molecule, how does the AC50 [1] read?
**A.** Its AC50 is 39.8 µM [falling, single point].

**Q.** Which AC50 [1] does the source give for COc1cc(NC(=O)c2cc3sccc3n2C)cc(OC)c1 here?
**A.** Its AC50 is 12.6 µM [falling, single point].

**Q.** With CCOc1ccc(Nc2c(S(=O)(=O)c3ccc(C)cc3)cnc3cc(OC)c(OC)cc23)cc1 as the molecule, how does the AC50 [1] read?
**A.** The AC50 was 0.316 µM [falling, full curve].

**Q.** Which AC50 [1] does the source give for COc1ccc(CCNC(=O)c2ccc3c(c2)sc2nc(-c4ccc(C)cc4)cn23)cc1OC here?
**A.** The AC50 was 20 µM [falling, single point].
